# Values joined by “and” are separate entries in the source; they are usually repeats but may differ in a detail not shown here. Equal values may be shown once. Where a name gives a salt, the structure may show the parent alone. ± gives the standard deviation of the averaged measurements. Some of the results follow. Single values are uncertain here, since repeats match poorly.
# System: A549
# Experiment: surface PD-L1 immunofluorescence intensity relative to IFN-gamma-only control (ratio); higher = more PD-L1 expression
# Conditions: 10 µM; exposure time 24 h; IFN-gamma 100 ng/mL
row,Compound,surface PD-L1 immunofluorescence intensity
1,O=C(NCNC(=O)NC1C(=O)NC(=O)N1CO)NC1C(=O)NC(=O)N1CO (configuration not stated) [Imidurea],0.99
2,O=[N+]([O-])c1ncc[nH]1 [Azomycin (2-Nitroimidazole)],1
3,Oc1ccc2c3c1O[C@H]1[C@@H](O)CC[C@@]4(O)[C@@H](C2)N(CC2CCC2)CC[C@]314 [Nalbuphine hydrochloride],0.939
4,CC1C=CC=CCCC=CC=CC=CC=CC(OC2OC(C)C(O)C(N)C2O)CC2OC(O)(CC(O)C(O)CCC(O)CC(O)CC(O)CC(=O)OC(C)C(C)C1O)CC(O)C2C(=O)O (configuration not stated) [Nystatin (Mycostatin)],1.09
5,C[C@]12CC[C@H](O)CC1=CC[C@@H]1[C@@H]2CC[C@]2(C)C(=O)CC[C@@H]12 [Dehydroepiandrosterone (DHEA)],1.06
6,CC[C@@H](CO)NC(=O)[C@@H]1C=C2c3cccc4c3c(cn4C)C[C@H]2N(C)C1 [Methysergide maleate],1.08
7,N#C[C@H](O[C@@H]1O[C@H](CO[C@@H]2O[C@H](CO)[C@@H](O)[C@H](O)[C@H]2O)[C@@H](O)[C@H](O)[C@H]1O)c1ccccc1 [Amygdalin],1.05
8,"CC(=O)N1CC[N+](C)(C)CC1 [4-Acetyl-1,1-dimethylpiperazinium iodide]",1.09
9,NC(C(=O)O)c1nn[nH]n1 (racemic) [(RS)-(Tetrazol-5-yl)glycine],1.05
10,COc1ccc(CC2NCCc3cc(OC)c(OC)cc32)cc1OC (configuration not stated) [Tetrahydropapaverine HCl],1.04
11,c1ccc2c(c1)OCC(C1=NCCN1)O2 (configuration not stated) [Idazoxan hydrochloride],0.97 ± 0.084
12,CCC[C@@H]1CC2=CC(=O)CC[C@]2(C)[C@H]2CC[C@@]3(C)[C@@H](CC[C@@]3(O)CCC(=O)O)[C@H]12,0.944
13,COC1(C[S@+]([O-])c2ccccc2)CCN(CCc2c[nH]c3ccc(F)cc23)CC1,0.962
14,CC[N+]1(C)CCCC(OC(=O)C(O)(c2ccccc2)c2ccccc2)C1 (configuration not stated) [Pipenzolate bromide],1.01
15,Cc1nnc2n1-c1sc(CCC(=O)N3CCOCC3)cc1C(c1ccccc1Cl)=NC2,0.908
16,CC[C@@H](CO)NC(=O)[C@@H]1C=C2c3cccc4[nH]cc(c34)C[C@H]2N(C)C1 [Methylergometrine maleate],1.01 ± 0.034
17,CCC1(C2=NCCN2)Cc2ccccc2O1 (configuration not stated) [Efaroxan hydrochloride],0.904
18,NC(N)=Nc1ccc2[nH]c3c(c2c1)C[C@@]1(O)[C@H]2Cc4ccc(O)c5c4[C@@]1(CCN2CC1CC1)[C@H]3O5 [GNTI dihydrochloride],1.01
19,CCOC(=O)c1ncn2c1[C@@H]1CCCN1C(=O)c1cc(OC)ccc1-2,0.987
20,CN1[C@@H]2CC[C@H]1C[C@@H](OC(=O)c1cc(Cl)cc(Cl)c1)C2,1.08
21,O=C(O)c1nn(Cc2ccc(Cl)cc2Cl)c2ccccc12 [Lonidamine],0.971

row,Compound,surface PD-L1 immunofluorescence intensity
1,O=c1[nH]oc2c1CCNC2 [THIP Hydrochloride],1.02
2,O=c1[nH]oc2c1CCNC2 [THIP hydrochloride],0.823
3,C[N+]1(C)CCc2cc3c(cc2[C@H]1[C@@H]1OC(=O)c2c1ccc1c2OCO1)OCO3 [(-)-Bicuculline methochloride],1.04
4,C[N+]1(C)CCc2cc3c(cc2[C@H]1[C@@H]1OC(=O)c2c1ccc1c2OCO1)OCO3 [(-)-Bicuculline methiodide],0.999
5,CN1CC[C@@H]2CN3CCc4cccc(c43)[C@@H]2C1 [SDZ SER 082 fumarate],1.05
6,O=c1cccc2n1C[C@@H]1CNC[C@H]2C1 [(-)-Cytisine],1.08
7,"O=c1cccc2n1C[C@@H]1CNC[C@H]2C1 [Cytisine (Baphitoxine, Sophorine)]",1.01
8,NCC1(CC(=O)O)CCCCC1 [Gabapentin],1.04
9,Fc1ccc(C(OCCN2CCN(C/C=C/c3ccccc3)CC2)c2ccc(F)cc2)cc1,1.05
10,C=C1CC[C@@]2(O)[C@H]3Cc4ccc(O)c5c4[C@@]2(CCN3CC2CC2)[C@H]1O5 [Nalmefene hydrochloride],1.07
11,O=[N+]([O-])O[C@H]1CO[C@H]2[C@@H]1OC[C@H]2O[N+](=O)[O-] [Isosorbide dinitrate],1.08
12,O=C(CCCN1CCC2(CC1)C(=O)NCN2c1ccccc1)c1ccc(F)cc1 [Spiperone],0.998
13,CC(N)C(O)c1ccccc1 (configuration not stated) [Phenylpropanolamine hydrochloride],1.14
14,CCCCC1(C2CCCC2)Cc2cc(OCCCC(=O)O)c(Cl)c(Cl)c2C1=O (configuration not stated),0.953
15,Cc1ncsc1CCCl [Chlormethiazole hydrochloride],1.02
16,CCOC(=O)c1cncn1[C@H](C)c1ccccc1 [Etomidate],1.09
17,CN1C2CCC1CC(OC(c1ccccc1)c1ccc(Cl)cc1)C2 (configuration not stated),1.05
18,"CN1CCc2cc3c(cc2C1C1OC(=O)c2c1ccc1c2OCO1)OCO3 (single isomer, unassigned; (+)) [(+)-Bicuculline]",1.02 ± 0.11
19,CC(O)(CS(=O)(=O)c1ccc(F)cc1)C(=O)Nc1ccc(C#N)c(C(F)(F)F)c1 (configuration not stated) [Bicalutamide],1.08
20,CCC1(C)CC(=O)NC(=O)C1 [Bemegride],1.02
21,CCCC(C)(COC(N)=O)COC(=O)NC(C)C (configuration not stated) [Carisoprodol],1.03

row,Compound,surface PD-L1 immunofluorescence intensity
1,C/C(O)=C(\C#N)C(=O)Nc1cc(Br)ccc1Br,0.919
2,Cc1ccccc1-n1c(Cn2ncc3c(N)ncnc32)nc2cccc(C)c2c1=O,0.933
3,Cc1ccc2c(c1)C1(CCN(CCc3nc(-c4ccccc4)oc3C)CC1)OC(=O)N2,1.04
4,N[C@@H]1C[C@H]1c1ccccc1.N[C@H]1C[C@@H]1c1ccccc1 [Tranylcypromine hemisulfate],1.1
5,C[C@]12CCC(=O)C=C1CC[C@@H]1[C@@H]2CC[C@]2(C)C(=O)CC[C@@H]12 [Androstenedione],1.01
6,OC(c1ccccc1)(c1ccccc1)C1CCNCC1 [Azacyclonol],0.993
7,COc1cc(N)c(Cl)cc1C(=O)NC1CN2CCC1CC2 (configuration not stated) [Zacopride hydrochloride],0.951
8,N=C(NCc1ccc(Cl)cc1)SCCCc1c[nH]cn1 [Clobenpropit dihydrobromide],1.11
9,COc1cc(OC)c(OC)cc1C=O [Asaraldehyde (Asaronaldehyde)],0.867
10,C[N+]1(C)CCCC(OC(=O)C(O)(c2ccccc2)c2ccccc2)C1 (configuration not stated) [Mepenzolate bromide],1.02
11,C[C@@H]1CN([C@H]2CC[C@](C#N)(c3ccc(F)cc3)CC2)CC[C@]1(C(=O)O)c1ccccc1 [Levocabastine hydrochloride],1.02
12,C(=C\c1ccccc1)/CN1CCN(CCOC(c2ccccc2)c2ccccc2)CC1,1.06
13,c1ccc2sc(C3(N4CCCCC4)CCCCC3)cc2c1 [BTCP maleate],1.09
14,C=CCC1(CC(C)C)C(=O)NC(=O)NC1=O [Butalbital],0.977
15,O=C1C2CCN(CC2)C1(CO)CO,0.96
16,"C=CCN1CC[C@]2(C)c3cc(O)ccc3C[C@H]1C2C (single isomer, unassigned; (+))",1.03
17,CCC(=O)O[C@H]1CC[C@H]2[C@@H]3CCC4=CC(=O)CC[C@]4(C)[C@H]3CC[C@]12C [Testosterone propionate],1.04
18,COc1ccc(OC)c(C(O)C(C)N)c1 (configuration not stated) [Methoxamine hydrochloride],0.954
19,Ic1cncc(OC[C@@H]2CCN2)c1,1.02
20,CCOc1cncc(/C=C/CCNC)c1 [TC 2559 difumarate],0.968
21,CCOC(=O)c1ncn2c1CN(C)C(=O)c1cc(N=[N+]=[N-])ccc1-2,1.01

row,Compound,surface PD-L1 immunofluorescence intensity
1,CCCN1CCO[C@@H]2c3cc(O)ccc3OC[C@H]21,1.06 and 1.05
2,CN1C(=O)CCS(=O)(=O)C1c1ccc(Cl)cc1 (configuration not stated) [Chlormezanone],1.01 ± 0.065
3,O=P1(N(CCCl)CCCl)NCCCO1 (configuration not stated) [Cyclophosphamide],1.1
4,CCCN[C@@H]1CCc2c(OC)cccc2[C@@H]1C [(+)-AJ 76 hydrochloride],1.03
5,Cn1c2c(c3ccccc31)CCNCC2,0.972
6,C=C1C[C@@H]2[C@H](CC[C@]3(C)C(=O)CC[C@@H]23)[C@@]2(C)C=CC(=O)C=C12 [Exemestane],1.06 ± 0.1
7,CC(=O)[C@H]1CC[C@H]2[C@@H]3CC[C@H]4C[C@H](O)CC[C@]4(C)[C@H]3C(=O)C[C@]12C [Alfaxalone],0.901
8,CC1=NN=C(c2ccc(N)cc2)c2cc3c(cc2C1)OCO3,1.05
9,C[C@H]1CNCCc2ccc(Cl)cc21 [Lorcaserin HCl],0.986
10,O=C(O)CCC(CP(=O)(O)O)C(=O)O (configuration not stated) [PMPA (NAALADase inhibitor)],0.964
11,CN(C)C(=O)Oc1cccc([N+](C)(C)C)c1 [Neostigmine bromide],1.03
12,Cc1onc(O)c1C[C@H](N)C(=O)O,1.15
13,CN1[C@@H]2CC[C@H]1CC(OC(=O)N1Cc3ccccc3NC1=O)C2 (some centres not stated) [DAU 5884 hydrochloride],1
14,COc1ccc(C(CN(C)C)C2(O)CCCCC2)cc1 (configuration not stated) [Venlafaxine],1.08
15,CCc1c(C(=O)C(N)=O)c2c(OCC(=O)O)cccc2n1Cc1ccccc1,1.13
16,"CC(=O)[C@H]1CC[C@H]2[C@@H]3CC[C@@H]4CC(=O)CC[C@]4(C)[C@H]3CC[C@]12C [5b-Pregnan-3,20-dione]",1
17,CCNCC(O)c1cccc(O)c1 (configuration not stated) [Etilefrine hydrochloride],0.956
18,Clc1cccc(SC2CCNCC2)n1 [Anpirtoline hydrochloride],1.09
19,CCOC(=O)c1ncc2[nH]c3ccc(OCc4ccccc4)cc3c2c1COC,1.03

# Shown as tab-separated lines: entries from further up
row	Compound	surface PD-L1 immunofluorescence intensity
2	CN1C(=O)CCS(=O)(=O)C1c1ccc(Cl)cc1 (configuration not stated) [Chlormezanone]	1.01 ± 0.065
4	CCCN[C@@H]1CCc2c(OC)cccc2[C@@H]1C [(+)-AJ 76 hydrochloride]	1.03
6	C=C1C[C@@H]2[C@H](CC[C@]3(C)C(=O)CC[C@@H]23)[C@@]2(C)C=CC(=O)C=C12 [Exemestane]	1.06 ± 0.1
7	CC(=O)[C@H]1CC[C@H]2[C@@H]3CC[C@H]4C[C@H](O)CC[C@]4(C)[C@H]3C(=O)C[C@]12C [Alfaxalone]	0.901
16	CC(=O)[C@H]1CC[C@H]2[C@@H]3CC[C@@H]4CC(=O)CC[C@]4(C)[C@H]3CC[C@]12C [5b-Pregnan-3,20-dione]	1
17	CCNCC(O)c1cccc(O)c1 (configuration not stated) [Etilefrine hydrochloride]	0.956

# From the supplement of paper PMC8732350
